# Experimental data from paper PMC7683387.
# Protein sequences, listed by entry. Tags and fused reporters are not part of them. Residues count along the entry.
# UniProt P27918, residues 28-469: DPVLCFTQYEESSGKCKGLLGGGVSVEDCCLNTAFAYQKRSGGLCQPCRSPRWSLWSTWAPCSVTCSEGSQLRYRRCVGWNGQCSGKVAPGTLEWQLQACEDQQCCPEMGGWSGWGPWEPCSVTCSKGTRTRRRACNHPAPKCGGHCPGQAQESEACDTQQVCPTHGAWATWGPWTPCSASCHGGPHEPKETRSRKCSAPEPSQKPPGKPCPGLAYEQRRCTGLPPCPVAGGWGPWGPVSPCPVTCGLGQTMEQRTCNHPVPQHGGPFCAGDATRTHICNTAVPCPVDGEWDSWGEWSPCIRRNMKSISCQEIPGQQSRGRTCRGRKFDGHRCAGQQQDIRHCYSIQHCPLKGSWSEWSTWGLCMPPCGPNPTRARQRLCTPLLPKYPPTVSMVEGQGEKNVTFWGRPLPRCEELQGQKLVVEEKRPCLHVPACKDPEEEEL
# These are yes or no findings as the source states them, for the method shown.
# Target: T1, LipL32 (L. interrogans serovar Copenhageni 10A) (UniProt Q72SM7)
# T1 sequence: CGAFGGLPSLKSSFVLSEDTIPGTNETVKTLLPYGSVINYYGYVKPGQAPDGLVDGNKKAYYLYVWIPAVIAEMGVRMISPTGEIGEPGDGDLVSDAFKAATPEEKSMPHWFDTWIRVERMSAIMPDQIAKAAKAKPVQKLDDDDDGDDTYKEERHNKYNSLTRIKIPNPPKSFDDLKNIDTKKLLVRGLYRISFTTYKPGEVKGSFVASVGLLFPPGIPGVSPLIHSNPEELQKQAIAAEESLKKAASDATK
# Test: ELISA; 1 µg of each recombinant leptospiral protein immobilised on ELISA plate wells, incubated with 0.5 µg of properdin (unfractionated or oligomer); detected with goat polyclonal anti-human properdin and peroxidase-conjugated anti-goat IgG, OPD, absorbance 492 nm; basal values with PBS subtracted; both purified
substance,measurement,value
unfractionated commercial purified human properdin (from UniProt P27918 28-469),binding,no binding (tested: 0.5 µg of properdin)
